The test system of one data set is pepsin. Description: In vitro gastric digestion of casein with targeted UHPLC-MS/MS-MRM quantitation of peptides. As to conditions: SGF pH 3 with pepsin, 37 °C, related to the respective casein variant, n = 4. Type of data set: in vitro ADME, porcine. On the procedure:
The in vitro digestion was based on the Nature protocol established by Brodkorb et al.([30]) For this, simulated salivary fluid (SSF, containing 15.1 mM KCl, 3.7 mM KH2PO4, 13.6 mM NaHCO3, 0.15 mM MgCl2(H2O)6, 0.06 mM (NH4)2CO3, 1.1 mM HCl, and 1.5 mM CaCl2(H2O)2) and simulated gastric fluid (SGF, containing 6.9 mM KCl, 0.9 mM KH2PO4, 25.0 mM NaHCO3, 47.2 mM NaCl, 0.12 mM MgCl2(H2O)6, 0.5 mM (NH4)2CO3, 15.6 mM HCl, and 0.15 mM CaCl2(H2O)2) were prepared. A total amount of 100 mg casein was suspended in 3 mL of SSF and incubated for 5 min at 37 °C in the tube rotator. After taking a sample (500 μL, t = 0 h), 2 mL of SGF was added and the pH was adjusted to 3 with 100 μL of HCl (1 M). After addition of 125 μL of pepsin solution (80,000 U/mL in 10 mM HCl), 275 μL of H2O was added to fill up to 5 mL. This was followed by further incubation at 37 °C in a tube rotator for 6 h. 500 μL of samples was taken at 0.25, 0.5, 0.75, 1, 2, 3, 4, 5, and 6 h, respectively. The samples were frozen in liquid nitrogen and stored at −80 °C until further analysis. For MS experiments, all samples were diluted 1:1 with 10% MeCN.
All targeted proteomics LC–MS/MS measurements were performed using a Sciex ExionLC AC (Sciex, Darmstadt, Germany) coupled to a 6500+ QTrap LC–MS/MS system (Sciex, Darmstadt, Germany) operating in the positive electrospray ionization mode. Data acquisition and instrumentation control were performed with AnalystTF software (v 1.7.1; Sciex, Darmstadt, Germany). Separation was performed using a 100 × 2.1 mm, 1.7 μm, Kinetex C18 column (Phenomenex, Aschaffenburg, Germany) with a guard column of the same type with 0.1% aqueous formic acid and acetonitrile containing 0.1% formic acid at a flow rate of 0.25 mL/min. […] For the preparation of the calibration curves, five peptides were dissolved individually in D2O (600 μL) and the concentration of the stock solutions was determined by qNMR.[35] […] The data were analyzed using MultiQuant software (v 3.0.3; Sciex, Darmstadt, Germany).

Data set [1] can be described thus: In vivo gastric digestion of casein in pigs, peptides in stomach content. As to conditions: pigs fed 1 g casein in 5 mL H2O, stomach content after 2 h, normalized to 100 mL gastric volume; UHPLC–MS/MS-MRM; mean ± SEM, n = 6.

For “PVVVPPFLQPEVM [bitter casein peptide βA1/A2-CN81–93]”, the “release rate related to αS1- or β-casein after 2 h of in vitro digestion” value (“release rate related to αS1- or β-casein” below) in the data set with pepsin worked out at 65.5%.
In the case of “YFYPEL [bitter casein peptide αS1-CN144–149]”, the “concentration in stomach content after in vivo digestion” value in data set [1] is 0.91 ± 0.03 µM. In the data set on pepsin, the “release rate related to αS1- or β-casein” value is on record as 19.3%.
Turning to “YQEPVLGPVRGPFPIIV [bitter casein peptide βA1/A2-CN193–209]”, the “release rate related to αS1- or β-casein” value in the data set on pepsin was approximately 100%.
In the case of “YYVPLGTQ [bitter casein peptide αS1-CN165–172]”, the “concentration in stomach content after in vivo digestion” value in data set [1] amounted to 10.30 ± 0.38 µM.

Source of the values: paper PMC9501810, “Bitter Peptides YFYPEL, [sequence], and [sequence], Released during Gastric Digestion of Casein, Stimulate Mechanisms of Gastric Acid Secretion via Bitter Taste Receptors TAS2R16 and TAS2R38” (Journal of Agricultural and Food Chemistry, 2022).
